In US12410157B2, “Compound useful as toll-like receptor 7 activation inhibitor” (TOYAMA PREFECTURAL UNIVERSITY, priority 2020, dated 2025):
Where a name gives a salt, the structure may show the parent alone. At least one structure is not confirmed: it was looked up by name or label, or the drawing left a doubt.

Tests used:
Assay type in all cases: cell-based
TLR7 [1] = molecular target: T1, TLR7 (Homo sapiens, UniProt Q9NYK1); assay: TLR7 inhibitory effect (IL-6) in PBMCs from patients with systemic lupus erythematosus; details: SLE patient PBMCs; for Order of strength of the effect on IL-6 production: FIG. 4; for IL-6 production induced by gardiquimod stimulation: 0.1-50 μM, Gardiquimod 3 μg/mL, 24 hours
T1 construct: PBMCs were isolated from 7 mL of blood collected from patients with systemic lupus erythematosus; endogenous in cells; host or cells: PBMCs from patients with systemic lupus erythematosus
T1 sequence (Q9NYK1 27-1049): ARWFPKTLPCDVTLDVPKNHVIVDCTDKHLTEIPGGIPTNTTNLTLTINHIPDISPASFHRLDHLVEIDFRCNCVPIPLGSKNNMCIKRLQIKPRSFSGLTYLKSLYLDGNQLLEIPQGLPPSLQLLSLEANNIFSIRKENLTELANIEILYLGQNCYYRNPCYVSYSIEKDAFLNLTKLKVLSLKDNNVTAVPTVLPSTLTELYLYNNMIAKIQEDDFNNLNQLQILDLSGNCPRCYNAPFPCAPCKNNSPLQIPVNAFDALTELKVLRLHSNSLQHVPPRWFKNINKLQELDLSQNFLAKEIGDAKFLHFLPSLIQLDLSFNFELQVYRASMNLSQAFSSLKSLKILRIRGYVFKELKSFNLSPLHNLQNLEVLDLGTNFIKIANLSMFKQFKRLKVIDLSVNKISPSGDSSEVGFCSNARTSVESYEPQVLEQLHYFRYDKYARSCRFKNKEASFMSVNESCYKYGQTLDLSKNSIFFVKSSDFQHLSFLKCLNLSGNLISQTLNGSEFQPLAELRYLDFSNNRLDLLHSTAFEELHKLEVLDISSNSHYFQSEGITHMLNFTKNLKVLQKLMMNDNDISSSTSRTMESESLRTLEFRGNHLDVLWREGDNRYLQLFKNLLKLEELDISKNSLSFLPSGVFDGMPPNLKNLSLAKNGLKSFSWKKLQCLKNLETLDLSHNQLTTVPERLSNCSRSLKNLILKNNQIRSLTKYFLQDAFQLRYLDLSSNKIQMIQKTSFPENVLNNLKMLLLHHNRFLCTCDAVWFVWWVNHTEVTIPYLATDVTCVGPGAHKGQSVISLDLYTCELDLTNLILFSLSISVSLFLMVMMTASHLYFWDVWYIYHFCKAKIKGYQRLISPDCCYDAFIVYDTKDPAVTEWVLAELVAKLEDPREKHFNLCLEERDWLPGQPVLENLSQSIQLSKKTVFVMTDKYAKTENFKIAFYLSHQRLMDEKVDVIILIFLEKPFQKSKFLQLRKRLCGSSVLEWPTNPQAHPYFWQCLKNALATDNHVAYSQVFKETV
Procedure: The TLR7 inhibitory effect of B2-24-4-5A·HCOOH on PBMCs derived from patients with systemic lupus erythematosus was studied. PBMCs were isolated from 7 mL of blood collected from patients with systemic lupus erythematosus. Isolated PBMCs were spread into each well of a 96-well plate containing RPMI 1640 medium containing 10% (v/v) fetal calf serum (FCS), penicillin, streptomycin, L-glutamic acid, and 2-mercaptoethanol at 0.5×10^5/100 μL and incubated at 37° C. in the presence of 5% (v/v) CO2. 50 μL of B2-24-4-5A·HCOOH, B2-24-4·HCl or the comparative drug hydroxychloroquine sulfate (HCQ) was added to each well to achieve a final concentration of 0.1 μM, 0.5 μM, 1 μM, 5 μM, 10 μM or 50 μM and incubated for 30 minutes. The TLR7 ligand, Gardiquimod (Invivogen), was added at a final concentration of 3 μg/mL and incubated for 24 hours. After incubation, all culture media were collected and the concentration of IL-6 in the culture medium was quantified using ELISA (used kit: human IL-6 DuoSet ELISA (trade name), manufactured by R&D Systems).

TLR7 [2] = molecular target: T2, TLR7 (Mus musculus, UniProt P58681); assay: TLR7 selectivity in mouse BMDM: IL-6 on stimulation with TLR7 ligand R848; set-up: Mouse BMDMs induced to differentiate by culture were spread into each well of a 96-well plate; endogenous in cells; host or cells: mouse bone marrow-derived macrophages (BMDM); mouse Flt-3 ligand-induced dendritic cells (FLDC); details: 1 nM, 10 nM or 100 nM, 24 hours
T2 sequence (P58681 27-1050): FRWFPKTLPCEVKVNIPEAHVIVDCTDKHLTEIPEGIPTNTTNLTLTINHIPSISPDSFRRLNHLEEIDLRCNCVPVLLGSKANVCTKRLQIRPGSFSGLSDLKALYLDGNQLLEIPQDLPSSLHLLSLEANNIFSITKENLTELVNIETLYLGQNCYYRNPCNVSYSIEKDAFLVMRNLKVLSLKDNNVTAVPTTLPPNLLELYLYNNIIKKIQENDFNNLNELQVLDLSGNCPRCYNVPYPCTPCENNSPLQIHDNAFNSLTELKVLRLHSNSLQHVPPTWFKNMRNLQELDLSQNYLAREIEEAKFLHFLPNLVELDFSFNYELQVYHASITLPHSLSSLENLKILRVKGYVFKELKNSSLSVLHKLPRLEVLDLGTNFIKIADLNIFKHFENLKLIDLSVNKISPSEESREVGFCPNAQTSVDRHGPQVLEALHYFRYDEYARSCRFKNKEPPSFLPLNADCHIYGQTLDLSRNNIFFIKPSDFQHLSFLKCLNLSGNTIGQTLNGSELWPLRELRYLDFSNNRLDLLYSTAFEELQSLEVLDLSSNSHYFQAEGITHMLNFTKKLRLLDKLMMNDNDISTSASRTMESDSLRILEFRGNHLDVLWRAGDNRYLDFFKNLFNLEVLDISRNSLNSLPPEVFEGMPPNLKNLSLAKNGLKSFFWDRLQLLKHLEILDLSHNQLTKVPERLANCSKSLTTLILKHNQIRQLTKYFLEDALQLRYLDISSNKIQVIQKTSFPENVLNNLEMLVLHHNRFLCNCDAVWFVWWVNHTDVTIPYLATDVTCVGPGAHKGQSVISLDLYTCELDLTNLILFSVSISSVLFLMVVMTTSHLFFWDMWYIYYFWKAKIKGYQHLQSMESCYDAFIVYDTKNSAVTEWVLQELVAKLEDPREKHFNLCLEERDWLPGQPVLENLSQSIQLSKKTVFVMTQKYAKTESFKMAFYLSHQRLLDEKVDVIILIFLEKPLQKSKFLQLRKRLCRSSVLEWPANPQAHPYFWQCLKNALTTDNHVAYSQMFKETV

TLR7 [3] = molecular target: T2, TLR7; assay: Micro RNA-stimulated IFN-α production in mouse Flt-3 ligand-induced dendritic cells (FLDC); set-up: Mouse BMDMs induced to differentiate by culture were spread into each well of a 96-well plate; endogenous in cells; host or cells: mouse bone marrow-derived macrophages (BMDM); mouse Flt-3 ligand-induced dendritic cells (FLDC); details: 0.1, 0.3, or 1 μM, microRNA-DOTAP complexes 0.5 or 2 μg/ml, 24 hours

`C=C(C)[C@@H]1CC[C@]2(COC(=O)C2)C[C@H]1c1ccc(CN2CCNCC2)cc1` [B2-24-4-5A·HCOOH] was tested, and the “Order of strength of the effect on IL-6 production” value (TLR7 [1]) was “stronger for B2-24-4·HCl, B2-24-4-5A·HCOOH, and HCQ, in that order”, the “IL-6 production induced by gardiquimod stimulation” value (TLR7 [1]) was “attenuated” and the “Production of IL-6 by stimulation of the TLR7 ligand R848” value (TLR7 [2]) was “inhibited”. For the same compound, the “Micro RNA-stimulated IFN-α production” value (TLR7 [3]) was “inhibited micro RNA-stimulated IFN-α production in a concentration-dependent manner”.

For `C=C[C@]1(CO)CC[C@@H](C(=C)C)[C@H](c2ccc(CN3CCNCC3)cc2)C1` [B2-24-4•HCl], the “Order of strength of the effect on IL-6 production” value (TLR7 [1]) was “stronger for B2-24-4·HCl, B2-24-4-5A·HCOOH, and HCQ, in that order” and the “IL-6 production induced by gardiquimod stimulation” value (TLR7 [1]) was “attenuated”.
